Results are given in words; binding and its absence hold for the method and conditions named. Binding seen in cells or lysates may run through a third protein. A yes stands for co-enrichment or nearness to the bait. Other partners may have been found.
Columns and labels:
[1] = molecular target: RuvBl2 (UniProt Q9WTM5); experiment: summary in the description; assay not named there (IP and mass spectrometry in Example 10)
[2] = molecular target: Ruvbl1 (UniProt P60122); experiment: as above
[3] = molecular target: Dpy30 (UniProt Q99LT0); experiment: as above
[4] = molecular target: Set (UniProt Q9EQU5); experiment: as above
[5] = molecular target: Ruvbl1 (UniProt P60122); experiment: IP of Tox from EL4 lysate, mass spectrometry
[6] = molecular target: Dpy30 (UniProt Q99LT0); experiment: IP of Tox from EL4 lysate, mass spectrometry
[7] = molecular target: T1, Hmgb2 (UniProt P30681); experiment: IP of Tox from EL4 lysate, mass spectrometry
T1 sequence (looked up): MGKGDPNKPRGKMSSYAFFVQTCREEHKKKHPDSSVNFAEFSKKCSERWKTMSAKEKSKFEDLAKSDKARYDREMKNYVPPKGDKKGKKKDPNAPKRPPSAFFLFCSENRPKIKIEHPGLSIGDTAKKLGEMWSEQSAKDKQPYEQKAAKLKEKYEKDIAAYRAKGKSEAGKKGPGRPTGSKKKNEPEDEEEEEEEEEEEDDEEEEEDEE

Chains of the proteins cited; added tags and fusions are not shown. Residues count along the entry.
UniProt Q9WTM5, residues 2-463: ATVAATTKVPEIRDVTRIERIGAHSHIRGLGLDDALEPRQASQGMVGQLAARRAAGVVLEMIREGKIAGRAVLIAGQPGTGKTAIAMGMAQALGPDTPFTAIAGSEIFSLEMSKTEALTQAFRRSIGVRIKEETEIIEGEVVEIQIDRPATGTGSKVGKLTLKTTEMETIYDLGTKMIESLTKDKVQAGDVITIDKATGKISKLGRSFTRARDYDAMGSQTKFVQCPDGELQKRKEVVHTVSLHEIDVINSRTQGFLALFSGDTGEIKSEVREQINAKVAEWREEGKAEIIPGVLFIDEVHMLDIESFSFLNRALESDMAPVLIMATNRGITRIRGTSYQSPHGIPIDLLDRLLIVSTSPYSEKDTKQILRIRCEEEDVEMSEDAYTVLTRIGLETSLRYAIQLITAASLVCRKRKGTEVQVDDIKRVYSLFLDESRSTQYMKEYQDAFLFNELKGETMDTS
UniProt P60122: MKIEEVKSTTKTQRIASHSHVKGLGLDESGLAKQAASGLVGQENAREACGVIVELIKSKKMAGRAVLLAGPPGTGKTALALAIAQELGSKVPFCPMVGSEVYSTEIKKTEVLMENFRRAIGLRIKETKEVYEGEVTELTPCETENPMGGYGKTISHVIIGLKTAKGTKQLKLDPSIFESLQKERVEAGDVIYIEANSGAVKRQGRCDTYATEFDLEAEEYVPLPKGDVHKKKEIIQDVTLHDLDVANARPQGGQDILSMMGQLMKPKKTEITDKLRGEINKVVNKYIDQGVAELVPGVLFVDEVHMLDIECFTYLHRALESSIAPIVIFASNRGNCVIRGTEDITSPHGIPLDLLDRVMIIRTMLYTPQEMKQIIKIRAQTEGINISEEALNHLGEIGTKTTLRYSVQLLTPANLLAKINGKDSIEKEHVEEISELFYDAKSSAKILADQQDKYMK
UniProt Q99LT0: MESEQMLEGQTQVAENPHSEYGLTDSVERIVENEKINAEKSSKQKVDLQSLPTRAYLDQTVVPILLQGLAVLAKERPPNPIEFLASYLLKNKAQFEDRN
UniProt Q9EQU5, residues 2-289: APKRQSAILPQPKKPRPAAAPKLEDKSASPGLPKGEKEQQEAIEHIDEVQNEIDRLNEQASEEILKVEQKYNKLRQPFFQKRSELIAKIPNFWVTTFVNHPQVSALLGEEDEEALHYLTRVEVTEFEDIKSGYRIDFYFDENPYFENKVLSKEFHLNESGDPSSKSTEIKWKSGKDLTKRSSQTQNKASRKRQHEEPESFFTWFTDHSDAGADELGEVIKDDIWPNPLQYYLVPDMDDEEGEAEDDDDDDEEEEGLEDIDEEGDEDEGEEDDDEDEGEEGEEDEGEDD
UniProt P63158: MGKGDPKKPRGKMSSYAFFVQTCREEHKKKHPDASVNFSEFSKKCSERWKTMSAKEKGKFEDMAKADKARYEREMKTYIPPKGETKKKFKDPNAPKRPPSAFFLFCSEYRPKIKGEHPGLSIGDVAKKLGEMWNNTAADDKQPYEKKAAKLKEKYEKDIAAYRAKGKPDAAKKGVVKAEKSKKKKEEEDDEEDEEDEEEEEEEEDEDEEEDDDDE
UniProt Q66JW3: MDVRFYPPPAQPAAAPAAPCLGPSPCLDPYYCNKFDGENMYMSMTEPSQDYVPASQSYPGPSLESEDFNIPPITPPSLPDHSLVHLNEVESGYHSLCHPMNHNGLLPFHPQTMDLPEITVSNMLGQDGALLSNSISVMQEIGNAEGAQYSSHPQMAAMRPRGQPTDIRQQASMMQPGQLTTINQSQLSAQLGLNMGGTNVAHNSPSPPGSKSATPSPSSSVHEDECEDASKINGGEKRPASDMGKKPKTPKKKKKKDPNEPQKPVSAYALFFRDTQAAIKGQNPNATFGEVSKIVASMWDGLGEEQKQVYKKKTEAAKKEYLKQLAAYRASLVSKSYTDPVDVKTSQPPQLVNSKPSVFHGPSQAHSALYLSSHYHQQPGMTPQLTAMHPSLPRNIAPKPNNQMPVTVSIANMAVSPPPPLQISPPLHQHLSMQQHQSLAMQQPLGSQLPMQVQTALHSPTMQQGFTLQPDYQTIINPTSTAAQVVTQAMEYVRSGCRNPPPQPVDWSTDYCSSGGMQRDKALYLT

[8] = molecular target: Set (UniProt Q9EQU5); experiment: IP of Tox from EL4 lysate, mass spectrometry
[9] = molecular target: Hmgb1 (UniProt P63158); experiment: IP of Tox from EL4 lysate, mass spectrometry

Measured: binding

TOX (from UniProt Q66JW3 1-526)
binds: [1] | [2] | [3] | [4] | [5] | [6] | [7] | [8] | [9]

Reference: US20210071139A1
